# PubChem BioAssay AID493117 (Broad Institute, 2011)
# Only results without a clear call are listed here; the source files them as inconclusive.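 Rule for the calls: active = every test run gives a fitted half-maximal dose no higher than ten times the top tested dose, with signal falling; inconclusive = runs disagree, or a flat mid-level drop or poor fit; inactive = every test run inactive.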
# Target: Autoinducer 2-binding periplasmic protein LuxP (Vibrio harveyi) + Autoinducer 2 sensor kinase/phosphatase LuxQ (Vibrio harveyi) (UniProt P54300+P54302)
# Assay: inhibitors of AI-2-induced luminescence in V. harveyi MM32, dose response, mechanism study for V. harveyi quorum sensing inhibitors, strain MM32 LuxS-null, dry powder, set 3 (AID 493117)
# Conditions: AI-2 luminescence, 5 h; at 16 µM (top of the series)
smiles,measurement,value
C=Cn1c(C(=O)O)ccc1-c1ccccc1,"activity change, negative = inhibition",inconclusive: -3%
